Laboratory results taken from the supplement of paper PMC6414424.
± gives the standard deviation of the averaged measurements. Some of the results follow.

The compounds below were run on APPdp1-6 iPSC-derived neurons (assay: pThr231Tau/total Tau ratio Z-score vs DMSO vehicle wells; higher = more pThr231Tau relative to total Tau). Settings: 5 µM; treatment time 5 days.
For `O=C(O)c1ccccc1Nc1cccc(C(F)(F)F)c1` [Prestw-203], the “pThr231Tau/total Tau ratio Z-score” value was 1.58 ± 0.25.
`OCCc1ccccc1` [PHENYLETHYL ALCOHOL, antimicrobial] was tested, and the “pThr231Tau/total Tau ratio Z-score” value was 0.00577 ± 1.1.
In the case of `Clc1ccc(C(c2ccccc2Cl)C(Cl)Cl)cc1` (configuration not stated) [Prestw-1444], the “pThr231Tau/total Tau ratio Z-score” value is reported as -0.679 ± 0.17.
`O=C1O[C@H]([C@@H](O)CO)C(O)=C1O` [Prestw-325] was tested, and the “pThr231Tau/total Tau ratio Z-score” value was 0.404 ± 0.39.
For `CCOc1nc2cccc(C(=O)O)c2n1Cc1ccc(-c2ccccc2-c2nn[nH]n2)cc1` [CANDESARTAN CILEXTIL, angiotensin 1 receptor antagonist], the “pThr231Tau/total Tau ratio Z-score” value was 0.0778 ± 0.15.
`CCOc1nc2cccc(C(=O)O)c2n1Cc1ccc(-c2ccccc2-c2nn[nH]n2)cc1` [Prestw-1258] was tested, and the “pThr231Tau/total Tau ratio Z-score” value was -0.48 ± 0.33.
For `Nc1ccc(C(=O)O)c(O)c1` [Prestw-1202], the “pThr231Tau/total Tau ratio Z-score” value was 0.156 ± 1.1.
With `O=C1Nc2ccc(Cl)cc2[C@@](C#CC2CC2)(C(F)(F)F)O1` [Prestw-1400] the “pThr231Tau/total Tau ratio Z-score” value was -1.12 ± 1.1.
For `CCC(C)(C)C(=O)O[C@H]1C[C@@H](C)C=C2C=C[C@H](C)[C@H](CC[C@@H]3C[C@@H](O)CC(=O)O3)[C@H]21` [Prestw-865], the “pThr231Tau/total Tau ratio Z-score” value was -2.74 ± 0.95.
For `C[C@@H]1CN(c2c(F)c(F)c3c(=O)c(C(=O)O)cn(C4CC4)c3c2F)C[C@H](C)N1`, the “pThr231Tau/total Tau ratio Z-score” value was -0.119 ± 1.
`N=c1nc(N2CCCCC2)cc(N)n1O` [Prestw-20] was tested, and the “pThr231Tau/total Tau ratio Z-score” value was -0.74 ± 0.94.
In the case of `N=c1nc(N2CCCCC2)cc(N)n1O` [K+ channel activator; antihypertensive], the “pThr231Tau/total Tau ratio Z-score” value is reported as -0.87 ± 0.47.
For `CC(=O)Oc1ccc(C(c2ccc(OC(C)=O)cc2)c2ccccn2)cc1` [Prestw-419], the “pThr231Tau/total Tau ratio Z-score” value was -0.326 ± 0.83.
For `NNC(=O)c1ccncc1.Nc1ccc(C(=O)O)c(O)c1` [PASINIAZIDE    Therap cat: tuberculostatic], the “pThr231Tau/total Tau ratio Z-score” value was 0.979 ± 0.53.
In the case of `CCCc1nn(C)c2c(=O)[nH]c(-c3cc(S(=O)(=O)N4CCN(C)CC4)ccc3OCC)nc12` [Prestw-1342], the “pThr231Tau/total Tau ratio Z-score” value is reported as -1.31 ± 0.049.
`CCCNC(C)(C)COC(=O)c1ccccc1` [Prestw-1064] was tested, and the “pThr231Tau/total Tau ratio Z-score” value was -0.358 ± 0.52.
`CCC1(C)CC(=O)NC1=O` (configuration not stated) [Prestw-165] was tested, and the “pThr231Tau/total Tau ratio Z-score” value was -0.0621 ± 1.2.
With `NC[C@@H]1O[C@H](O[C@H]2[C@@H](O)[C@H](O[C@@H]3[C@@H](O)[C@H](N)C[C@H](N)[C@H]3O[C@H]3O[C@H](CN)[C@@H](O)[C@H](O)[C@H]3N)O[C@@H]2CO)[C@H](N)[C@@H](O)[C@@H]1O` [Prestw-158] the “pThr231Tau/total Tau ratio Z-score” value was -0.761 ± 0.84.
`CC(=O)Nc1ccc(OC(C)=O)cc1` was tested, and the “pThr231Tau/total Tau ratio Z-score” value was -1.14 ± 1.4.
With `NC1CCN(c2c(F)cc3c(=O)c(C(=O)O)cn(C4CC4)c3c2Cl)C1` (configuration not stated) [Prestw-1379] the “pThr231Tau/total Tau ratio Z-score” value was -0.779 ± 0.11.
`C[N+](C)(CCOc1ccccc1)Cc1ccccc1.O=C([O-])c1cc2ccccc2cc1O` [Prestw-936] was tested, and the “pThr231Tau/total Tau ratio Z-score” value was -0.0627 ± 0.17.
`CC(NCCc1ccc(O)cc1)C(O)c1ccc(O)cc1` (configuration not stated) [Prestw-349] was tested, and the “pThr231Tau/total Tau ratio Z-score” value was -0.196 ± 1.8.
